# Results of single-concentration screens

Sequences of proteins named here, by UniProt entry; tags and fusion partners are left off. Residues count along the entry.
UniProt Q8IDJ8, 1-583: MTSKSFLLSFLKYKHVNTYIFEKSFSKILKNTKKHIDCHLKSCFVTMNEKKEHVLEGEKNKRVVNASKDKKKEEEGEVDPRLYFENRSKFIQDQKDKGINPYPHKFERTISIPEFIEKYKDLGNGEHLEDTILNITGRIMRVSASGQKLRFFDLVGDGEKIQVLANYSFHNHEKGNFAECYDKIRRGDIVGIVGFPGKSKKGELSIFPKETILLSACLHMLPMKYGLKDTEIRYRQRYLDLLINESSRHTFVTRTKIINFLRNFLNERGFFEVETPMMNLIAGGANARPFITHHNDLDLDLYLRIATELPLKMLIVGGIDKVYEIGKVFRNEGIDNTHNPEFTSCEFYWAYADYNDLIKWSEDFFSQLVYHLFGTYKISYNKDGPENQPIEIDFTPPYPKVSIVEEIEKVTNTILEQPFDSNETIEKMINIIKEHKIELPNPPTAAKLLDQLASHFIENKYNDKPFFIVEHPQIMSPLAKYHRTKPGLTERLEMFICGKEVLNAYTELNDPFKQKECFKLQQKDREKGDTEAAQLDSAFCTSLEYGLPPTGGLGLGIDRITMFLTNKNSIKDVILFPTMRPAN
UniProt Q4DA54, 1-478: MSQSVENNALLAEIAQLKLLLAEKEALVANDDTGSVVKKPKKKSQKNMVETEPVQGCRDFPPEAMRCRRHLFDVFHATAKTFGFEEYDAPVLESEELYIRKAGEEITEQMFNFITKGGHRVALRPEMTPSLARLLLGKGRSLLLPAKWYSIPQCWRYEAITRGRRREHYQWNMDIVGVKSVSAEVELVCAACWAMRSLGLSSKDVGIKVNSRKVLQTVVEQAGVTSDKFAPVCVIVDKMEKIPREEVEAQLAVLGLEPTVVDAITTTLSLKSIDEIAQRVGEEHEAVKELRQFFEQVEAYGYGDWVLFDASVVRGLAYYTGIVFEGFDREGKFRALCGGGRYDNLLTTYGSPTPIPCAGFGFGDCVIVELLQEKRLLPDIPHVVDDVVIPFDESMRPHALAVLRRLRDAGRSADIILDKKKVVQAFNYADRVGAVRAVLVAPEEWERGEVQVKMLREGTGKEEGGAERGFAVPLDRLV

A: 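Cell assay of Leishmania donovani living inside macrophages; the read-out is not stated. Compounds at 30 µM. The record gives no direction; compounds that gave an IC50 in retests scored well above the rest, so higher reads as stronger inhibition. Of about 69,000 compounds tested this way, about 1,000 (1.5%) reached 50% or more in at least one test.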
B: 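Whole-parasite assay of Trypanosoma brucei over 72 hours; the read-out is not stated. Compounds at 30 µM. Direction is inferred from retests: higher values go with stronger inhibition. Values scatter widely below zero; nearly all retest evidence comes from the higher of the two concentrations used. About 64,000 compounds were tested under these conditions; 1.5% (about 940) showed 50% or more at least once.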
C: 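Assay of Toxoplasma gondii numbers, read through their beta-galactosidase reporter with a colour substrate. Concentration: 10 µM. The record gives no direction; the compounds picked for IC50 retests had high values, so higher reads as fewer parasites. About 67,000 compounds were tested under these conditions; 0.38% (about 260) showed 50% or more at least once.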
D: 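Lysine-tRNA ligase, Plasmodium falciparum 3D7 (UniProt Q8IDJ8). Enzyme assay of the cytosolic lysyl-tRNA synthetase in 384-well plates, read by luminescence. Compounds at 30 µM. Higher reads as stronger inhibition, judged from the few compounds that gave an IC50. Size under these conditions: about 69,000 compounds, about 49 of them at 50% or above in at least one test.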
E: 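Histidine-tRNA ligase, Trypanosoma cruzi CL Brener (UniProt Q4DA54). Enzyme assay of histidyl-tRNA synthetase; the read-out is not stated. Compounds at 30 µM. The record gives no direction; compounds that gave an IC50 in retests scored well above the rest, so higher reads as stronger inhibition. Of about 69,000 compounds tested this way, about 31 (0.045%) reached 50% or more in at least one test.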

Results are given as percent effect. How 0% and 100% were set is not recorded. Most values in the screen are low, and negative values occur. This is an unselected part of the compounds tested. Two or more numbers in one place are separate tests of the same structure; such repeats can differ widely. A dash means the value is not listed here; it may have been measured.

Compound,A,B,C,D,E
COCC1CN(Cc2ccc(F)cc2)Cc2nnn(CC3CC3)c21 (centres undefined),-,-,-,6.016,8.911
CCn1nccc1CNC(=O)C1CC1,28.76,-67.73,8.697,1.576,0.8368
Cc1nn2c(NCC(=O)NC3CC3)cc(-c3ccccc3)nc2c1C,5.79,-15.11,-9.197,-0.8931,1.064
Cc1cc(C)c2nc(CN[C@H]3CCCNC3)cc(O)c2c1,20.1,21.51,0.8107,15.62,-1.681
[H][C@@]12OCCN(c3ncccn3)[C@@]1([H])CC[C@H]2OCc1cccnc1,35.89,-17.68,1.323,-,-
Cc1ccc(CN[C@@H]2COC[C@H]2c2ccc(F)cc2)cc1C.O=C(O)CC(O)(CC(=O)O)C(=O)O,11.7,6.208,7.746,-,-
O=C(CN1CCOC(CNc2cccnn2)C1)NCc1ccccn1 (centres undefined),-7.692,-20.71,-4.292,2.725,2.817
Cc1cnc(CN2CCCC2c2noc(C(C)C)n2)cn1 (centres undefined),-61.76,-23.17,-6.837,0.1687,2.305
Cc1cc(C)n(CC2CCCCN2CC(=O)Nc2c(C)n[nH]c2C)n1 (centres undefined),24.63,18.21,4.027,3.983,5.102
COc1cc(N2CCC3(CCCN(C(=O)c4cccnc4)C3)C2)ncn1.O=C(O)C(F)(F)F (centres undefined),24.74,-151.1,1.239,-,-
Cl.O=c1c2sccc2nc2n1CCN(Cc1ccc(F)c(F)c1)CC2,18.84,15.73,-17.32,-,-
CN(Cc1nnc(C2CC2)n1C)S(=O)(=O)c1ccccc1F,2.165 & 8.229,-24.18,6.725,0.4015,3.659
CN(C(=O)CNc1ccc(C#N)cc1)C1CCCCC1,16.06,-10.62,2.281,4.355,14.29
O=C(O)C(F)(F)F.[H][C@@]12CCN(Cc3ccsc3)C[C@]1([H])[C@H](C(=O)Nc1cnccn1)CCO2,8.711,-603.1,-24.98,-,-
O=C(NCCNc1cnccn1)c1scnc1Cl,17.04,-20.33,-16.36,6.475,7.143
CCS(=O)(=O)N1CC[C@]2(C[C@@H](OCC3CC3)CO2)C1,-5.581,-44.33,6.645,2.545,1.695
O=C(N1CCCO1)[C@@]12CCO[C@@H]1CCN(Cc1cccs1)C2,-,-,-,0.3538,11.43
CCCNC(=O)CCNC1CSCCc2ccccc21 (centres undefined),25.27,-27.66,11.25,0.5992,2.597
CC(C)c1cc(NC(=O)CN2CCc3nn(C)c(=O)cc3C2)on1,3.106,-17.39,11.51,2.136,2.116
CCN(Cc1noc(C(C)(C)C)n1)Cc1ccc(C#N)cc1F,26.17,-10.17,12.4,4.421,-1.463
CC(C)(C)CC(=O)NCC(=O)Nc1ccn(Cc2ccncc2)n1,-19.89,-29.17,-15.62,4.721,7.453
OC(CN1CC(n2cccn2)C1)c1ccc2c(c1)OCCO2 (centres undefined),32.37,-5.908,-,1.102,14.94
O=C(O)C(F)(F)F.[H][C@@]12OCCN(c3ccc(C)cc3)[C@@]1([H])CC[C@H]2OCC(=O)N1CCCC1,6.841 & 0.9616,-18.77,-4.976,-,-
O=C(O)C(F)(F)F.[H][C@]12CN(Cc3nccs3)C[C@@]1([H])OCCN(C(=O)c1ccsc1)C2,13.96,-91.29,10.42,-,-
CCCn1ccnc1CN1CCCC(O)(CN2CCCC2)C1 (centres undefined),12.97,0.3385,16.31,10.43,2.155
COc1cccc(NC(C(N)=O)c2ccc(Br)cc2)c1 (centres undefined),16.05,-25.66,3.837,-0.3918,2.941
FC1(F)CCN(Cc2ccncc2)CC12CCN(Cc1ccccn1)C2.O=C(O)C(F)(F)F.O=C(O)C(F)(F)F.O=C(O)C(F)(F)F (centres undefined),-7.762,-,-12.32,-,-
COc1ccc(Cn2cc(C(=O)N(C)CCN(C)C)nn2)cc1,0.7609,4.159,15.62,4.352,5.155
c1ccc(COC[C@H]2CC[C@H]3[C@H](CCN3c3ncccn3)O2)nc1,-,-,-,4.311,5.102
Cc1noc(C)c1C(=O)N1C[C@@H]2COC[C@]2(COc2ccccn2)C1,-,-,-,5.983,5.785
CNC(=O)CN1CCC2(CC1)C[C@@H](O)[C@H](c1ccccc1)NC2=O,25.69,-10.5,-6.689,-0.471,7.605
O=C(NCCn1ccnc1)NCC(c1ccco1)N1CCCC1 (centres undefined),-19.19,-,5.781,0.8534,7.872
COc1cc(CCC(=O)NCC2CC2)ccc1OCC(F)(F)F,-8.803,1.663,4.082,1.759,1.734
Cc1nc(C(=O)N(C)C)nn1-c1ccccc1C(C)C,17.02,-17.28,20.71,6.741,-4.386
CCn1nnc2c1C(COCCN(C)C)CN(c1nncs1)C2 (centres undefined),-16.78 & 10.95,-56.31,-0.8819,-0.9813,-7.527

The values are deposited in ChEMBL (CHEMBL3988442, “University of Dundee, Small-Polar-MMV Screening Library” (2021)).